{"source": "PubChem BioAssay AID248", "about": "(DTP/NCI, 2004)", "test_system": "L1210 leukemia ip in BDF1 mice, survival T/C", "assay": "NCI In Vivo Anticancer Drug Screen. Data for tumor model L1210 Leukemia (intraperitoneal) in B6D2F1 (BDF1) mice", "conditions": "higher T/C = longer survival", "key": {"[1]": {"conditions": "T/C endpoint: mean survival time, dose: 400.0 mg/kg/injection, schedule: Q04DX003 (ip), vehicle: Klucel (hydroxypropylcellulose) (HPC)"}, "[2]": {"conditions": "T/C endpoint: mean survival time, dose: 400.0 mg/kg/injection, schedule: Q04DX003 (ip), vehicle: saline with Tween-80"}, "[3]": {"conditions": "T/C endpoint: mean survival time, dose: 400.0 mg/kg/injection, schedule: Q01DX001 (ip), vehicle: saline"}, "[4]": {"conditions": "T/C endpoint: median survival time, dose: 64.0 mg/kg/injection, schedule: Q01DX009 (oral), vehicle: saline"}}, "note": "The list does not hold the whole screen: it is rich in T/C values a quarter to a half above the control, in often repeated tests (any T/C) and in doses without a T/C. Further doses and runs are listed elsewhere. T/C is the treated group as % of the vehicle group. Some entries give survivors of the animals treated and no T/C: the source files T/C as zero there, which appears to mark a toxic dose or a test without result, not a measured value. Some survivor counts are full or nearly so, which does not show that the dose was tolerated: survival well below the control is almost never listed, so the zero probably covers shortened survival too. Counts of survivors are from the toxicity check (mostly the fifth day) where no day follows; animals may have died later. Schedules are NCI's codes, read here as Q, the interval in days (D) or hours (H), X, the number of doses. Where survival is the endpoint, this PubChem deposit counts one and a half times the control or more as active, and values a quarter to a half above the control carry no call in these data; other NCI protocols may use other cut-offs. Some doses were run more than once; their values stand side by side, smallest first. Counts like (3×) say how often a value occurs here. Some T/C values are followed by the survivors on the day toxicity was checked, most often the fifth; where none is given, no animal had died by that day."}
{"smiles": "O=c1scc(-c2ccc([N+](=O)[O-])cc2)s1", "values": [{"measurement": "survivor count", "setting": "T/C endpoint: mean survival time, dose: 100.0 mg/kg/injection, schedule: Q04DX002 (ip), vehicle: Klucel (hydroxypropylcellulose) (HPC)", "value": "0 of 3"}, {"measurement": "survivor count", "setting": "T/C endpoint: mean survival time, dose: 200.0 mg/kg/injection, schedule: Q04DX002 (ip), vehicle: Klucel (hydroxypropylcellulose) (HPC)", "value": "0 of 3"}, {"measurement": "survivor count", "setting": "T/C endpoint: mean survival time, dose: 400.0 mg/kg/injection, schedule: Q04DX002 (ip), vehicle: Klucel (hydroxypropylcellulose) (HPC)", "value": "0 of 3"}]}
{"smiles": "CCCCCCCNC(=O)Nc1cccc(Cl)c1C", "values": [{"measurement": "survivor count", "setting": "T/C endpoint: mean survival time, dose: 200.0 mg/kg/injection, schedule: Q04DX003 (ip), vehicle: Klucel (hydroxypropylcellulose) (HPC)", "value": "6 of 6"}, {"measurement": "survivor count", "setting": "[1]", "value": "6 of 6"}]}
{"smiles": "CCCNC1(C(N)=O)CCN(Cc2ccccc2)CC1", "values": [{"measurement": "survivor count", "setting": "T/C endpoint: mean survival time, dose: 200.0 mg/kg/injection, schedule: Q04DX003 (ip), vehicle: saline with Tween-80", "value": "1 of 6"}, {"measurement": "survivor count", "setting": "[2]", "value": "0 of 6"}]}
{"smiles": "CC1=C2[C@H]3OC(=O)[C@@H](C)[C@@H]3CC[C@@]2(C)C=CC1=O", "values": [{"measurement": "survivor count", "setting": "[3]", "value": "1 of 6"}, {"measurement": "survivor count", "setting": "[1]", "value": "0 of 6"}]}
{"smiles": "CCOC(=O)c1ccc2cc(C(=O)c3ccccc3)ccc2n1", "values": [{"measurement": "survivor count", "setting": "T/C endpoint: mean survival time, dose: 200.0 mg/kg/injection, schedule: Q01DX009 (ip), vehicle: saline", "value": "6 of 6"}]}
{"smiles": "O=CO.[Cu+2]", "values": [{"measurement": "survivor count", "setting": "T/C endpoint: mean survival time, dose: 100.0 mg/kg/injection, schedule: Q01DX001 (ip), vehicle: saline", "value": "0 of 6"}, {"measurement": "survivor count", "setting": "T/C endpoint: mean survival time, dose: 200.0 mg/kg/injection, schedule: Q01DX001 (ip), vehicle: saline", "value": "0 of 6"}, {"measurement": "survivor count", "setting": "[3]", "value": "0 of 6"}]}
{"smiles": "CCCCNC(c1ccccc1)=[N+]1C(C)CCCC1C", "note": "(stereo not drawn)", "values": [{"measurement": "survivor count", "setting": "T/C endpoint: mean survival time, dose: 25.0 mg/kg/injection, schedule: Q04DX002 (ip), vehicle: saline", "value": "0 of 3"}, {"measurement": "survivor count", "setting": "T/C endpoint: mean survival time, dose: 50.0 mg/kg/injection, schedule: Q04DX002 (ip), vehicle: saline", "value": "0 of 3"}, {"measurement": "survivor count", "setting": "T/C endpoint: mean survival time, dose: 100.0 mg/kg/injection, schedule: Q04DX002 (ip), vehicle: saline", "value": "3 of 3"}, {"measurement": "survivor count", "setting": "T/C endpoint: mean survival time, dose: 200.0 mg/kg/injection, schedule: Q04DX002 (ip), vehicle: saline", "value": "2 of 3"}, {"measurement": "survivor count", "setting": "T/C endpoint: mean survival time, dose: 400.0 mg/kg/injection, schedule: Q04DX002 (ip), vehicle: saline", "value": "3 of 3"}]}
{"smiles": "CN(CCc1ccccc1)/N=N/c1nc[nH]c1C(N)=O", "values": [{"measurement": "T/C", "setting": "T/C endpoint: mean survival time, dose: 75.0 mg/kg/injection, schedule: Q01DX009 (ip), vehicle: saline with Tween-80", "value": "144 % of control"}, {"measurement": "T/C", "setting": "T/C endpoint: mean survival time, dose: 264.0 mg/kg/injection, schedule: Q04DX003 (ip), vehicle: saline with Tween-80", "value": "128 and 148 % of control"}, {"measurement": "T/C", "setting": "[2]", "value": "133 % of control"}]}
{"smiles": "C[C@H](CN1CC(=O)NC(=O)C1)N1CC(=O)NC(=O)C1", "values": [{"measurement": "T/C", "setting": "T/C endpoint: mean survival time, dose: 100.0 mg/kg/injection, schedule: Q04DX003 (ip), vehicle: water", "value": "129 % of control"}, {"measurement": "T/C", "setting": "T/C endpoint: median survival time, dose: 8.0 mg/kg/injection, schedule: Q01DX009 (ip), vehicle: saline", "value": "115, 127, 131 (2×), 133 % of control"}, {"measurement": "T/C", "setting": "T/C endpoint: median survival time, dose: 8.0 mg/kg/injection, schedule: Q01DX009 (oral), vehicle: saline", "value": "130, 130 [9 of 10 alive], 139, 141 % of control"}, {"measurement": "T/C", "setting": "T/C endpoint: median survival time, dose: 8.0 mg/kg/injection, schedule: Q01DX009 (sc), vehicle: saline", "value": "126 % of control"}, {"measurement": "T/C", "setting": "T/C endpoint: median survival time, dose: 8.0 mg/kg/injection, schedule: Q03HX024 (ip), vehicle: saline", "value": "142 % of control"}, {"measurement": "T/C", "setting": "T/C endpoint: median survival time, dose: 16.0 mg/kg/injection, schedule: Q01DX009 (ip), vehicle: saline", "value": "140, 152 (2×), 155, 162 % of control"}, {"measurement": "T/C", "setting": "T/C endpoint: median survival time, dose: 16.0 mg/kg/injection, schedule: Q01DX009 (oral), vehicle: saline", "value": "141, 151, 153, 157 % of control"}, {"measurement": "T/C", "setting": "T/C endpoint: median survival time, dose: 32.0 mg/kg/injection, schedule: Q01DX009 (ip), vehicle: saline", "value": "132, 152, 164, 171, 175 % of control"}, {"measurement": "T/C", "setting": "T/C endpoint: median survival time, dose: 32.0 mg/kg/injection, schedule: Q01DX009 (oral), vehicle: saline", "value": "98, 106, 128, 172 % of control"}, {"measurement": "T/C", "setting": "T/C endpoint: median survival time, dose: 32.0 mg/kg/injection, schedule: Q03HX016 (ip), vehicle: saline", "value": "139 % of control [9 of 10 alive]"}, {"measurement": "T/C", "setting": "T/C endpoint: median survival time, dose: 64.0 mg/kg/injection, schedule: Q01DX009 (ip), vehicle: saline", "value": "115, 120, 124, 141, 168 % of control"}, {"measurement": "T/C", "setting": "[4]", "value": "86, 89, 102 % of control"}, {"measurement": "survivor count", "setting": "[4]", "value": "10 of 10"}, {"measurement": "survivor count", "setting": "T/C endpoint: median survival time, dose: 64.0 mg/kg/injection, schedule: Q03HX008 (ip), vehicle: saline", "value": "10 of 10"}, {"measurement": "survivor count", "setting": "T/C endpoint: median survival time, dose: 64.0 mg/kg/injection, schedule: Q03HX016 (ip), vehicle: saline", "value": "7 of 10"}, {"measurement": "survivor count", "setting": "T/C endpoint: median survival time, dose: 64.0 mg/kg/injection, schedule: Q03HX024 (ip), vehicle: saline", "value": "9 of 10"}, {"measurement": "survivor count", "setting": "T/C endpoint: median survival time, dose: 128.0 mg/kg/injection, schedule: Q01DX009 (oral), vehicle: saline", "value": "10 of 10"}, {"measurement": "survivor count", "setting": "T/C endpoint: median survival time, dose: 128.0 mg/kg/injection, schedule: Q03HX016 (ip), vehicle: saline", "value": "10 of 10"}, {"measurement": "survivor count", "setting": "T/C endpoint: median survival time, dose: 128.0 mg/kg/injection, schedule: Q03HX024 (ip), vehicle: saline", "value": "10 of 10"}, {"measurement": "T/C", "setting": "T/C endpoint: median survival time, dose: 128.0 mg/kg/injection, schedule: Q04DX003 (sc), vehicle: saline", "value": "132 % of control"}, {"measurement": "T/C", "setting": "T/C endpoint: median survival time, dose: 256.0 mg/kg/injection, schedule: Q04DX003 (ip), vehicle: saline", "value": "142 % of control"}, {"measurement": "T/C", "setting": "T/C endpoint: median survival time, dose: 256.0 mg/kg/injection, schedule: Q04DX003 (oral), vehicle: saline", "value": "145, 146, 153, 226 % of control"}, {"measurement": "T/C", "setting": "T/C endpoint: median survival time, dose: 256.0 mg/kg/injection, schedule: Q08DX002 (ip), vehicle: saline", "value": "147 % of control"}, {"measurement": "T/C", "setting": "T/C endpoint: median survival time, dose: 512.0 mg/kg/injection, schedule: Q04DX003 (oral), vehicle: saline", "value": "164, 173, 177, 271 % of control"}, {"measurement": "T/C", "setting": "T/C endpoint: median survival time, dose: 1024.0 mg/kg/injection, schedule: Q01DX001 (ip), vehicle: saline", "value": "130 % of control"}, {"measurement": "T/C", "setting": "T/C endpoint: median survival time, dose: 1024.0 mg/kg/injection, schedule: Q04DX003 (oral), vehicle: saline", "value": "108, 151, 194, 206 % of control"}, {"measurement": "T/C", "setting": "T/C endpoint: median survival time, dose: 2048.0 mg/kg/injection, schedule: Q04DX003 (oral), vehicle: saline", "value": "87, 91 (2×), 111 % of control"}]}
